Source: patent US6686353B1, “Diarylalkyl cyclic diamine derivatives as chemokine receptor antagonists” (Teijin Intellectual Property Center Limited, priority 1996, dated 2004)
Some results were stated once for a whole list of compounds, not compound by compound.

How the values were obtained:
[1] = molecular target: T1, human MCP-1 binding to THP-1 cells (Homo sapiens, UniProt P41597); assay: Inhibition of [125I]-labeled human MCP-1 binding to THP-1 cells; conditions: at 100 μM test compound
T1 construct: endogenous in cells; host or cells: THP-1 (human monocytic leukemia cell line), whole cells
T1 sequence (P41597 1-360 isoform P41597-2): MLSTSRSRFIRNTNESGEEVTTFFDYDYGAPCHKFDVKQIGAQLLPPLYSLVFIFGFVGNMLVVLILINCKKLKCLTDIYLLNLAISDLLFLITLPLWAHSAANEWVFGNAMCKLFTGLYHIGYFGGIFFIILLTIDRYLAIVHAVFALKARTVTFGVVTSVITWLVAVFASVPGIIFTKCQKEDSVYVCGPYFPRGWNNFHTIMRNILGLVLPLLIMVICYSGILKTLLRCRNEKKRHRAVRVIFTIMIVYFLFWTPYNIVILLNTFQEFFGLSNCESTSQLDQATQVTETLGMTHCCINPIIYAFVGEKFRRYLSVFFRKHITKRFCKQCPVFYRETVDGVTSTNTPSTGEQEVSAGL
Excerpt: Measurement of Inhibition of MCP-1 Binding to TP-1 Cells
1. Construction of Recombinant Baculovirus Carrying the Human MCP-1 Gene
Based on the previously published human MCP-1 gene sequence (for example T. Yoshimura et al., Febs Letters, 1989, 244, 487-493), two synthetic DNA primers (5′-[…]-3′ and 5′-[…]-3′) flanked by restriction enzyme sites were used to amplify a DNA fragment from cDNA derived from human endothelial cells (purchased from Kurabow Co.); the amplified fragment was cut with the restriction enzymes (PstI and XbaI), ligated into a transfer vector pVL1393 (Invitrogen Co.), and the resulting vector was co-transfected along with infectious baculovirus into Sf-9 insect cells and the supernatant was plaque assayed to yield human MCP-1 gene baculovirus recombinant.
2. Synthesis of [^125I]-labeled Human MCP-1 Expressed in Baculovirus
Using the method of K. Ishii et al. (Biochem Biophys Research Communications 1995, 206, 955-961), 5×10^6 Sf-6 insect cells was infected with 5×10^7 PFU (plaque forming units) of the above human MCP-1 recombinant baculovirus and cultured for 7 days in Ex-Cell 401 medium. The culture supernatant was affinity purified using a heparin Sepharose column (Pharmacia Co.) and then further purified using reverse phase HPLC (Vydac C18 column) to prepare purified human MCP-1. The purified human MCP-1 was protein labeled by Amersham Co. using the Bolton Hunter method to yield [^125I]-labeled baculovirus expressed human MCP-1 (specific activity 2000 Ci/mmol).
3. Measurement of Inhibition of Binding of [^125I]-labeled Baculovirus Expressed Human MCP-1 to THP-1 Cells
(§1) Human monocytic leukemia cell line THP-1 was suspended in assay buffer (RPMI-1640 (Gibco-BRL Co.) containing 0.1% BSA and 25 mM HEPES adjusted to pH 7.4) to give a cell suspension of a concentration of 1×10^7 cells/mL. The test compound was diluted in the assay buffer and used as the test compound solution. [^125I]-labeled human MCP-1 described above was diluted in assay buffer to 1 mCi/mL and used as the labeled ligand solution. In a 96 well filter plate (Millipore Co.), 25 μL of test compound solution, 25 μL of labeled ligand solution and 50 μL of cell suspension were aliquoted into each well in this order, stirred (total reaction volume 100 μL), and incubated for one hour at 18° C.
(§2) After the reaction, the reaction solution was filtered, and the filter was washed twice with 200 μL of cold PBS (200 μL of cold PBS was added and then filtered). The filter was removed and placed in an RIA tube (Iuchi Seieido Co.,), and the radioactivity retained by the cells on the filter were measured using a gamma counter (Aloka Co.).
To calculate the ability of test compound to inhibit binding of human MCP-1 to THP-1 cells, non-specific binding determined by adding 100 ng of unlabeled human MCP-1 in place of the test compound was subtracted, while the counts with no test compound added was taken as 100%.
(§3) Inhibition (%)=(1−(A−B)/(C−B))×100
(A, counts with test compound added; B, counts with 100 ng of unlabeled human […] added; C, counts with [^125I]-labeled human MCP-1 added).

[2] = molecular target: T2, human MIP-1α binding to THP-1 cells (Homo sapiens, UniProt P32246); assay: Inhibition of MIP-1α binding to THP-1 cells; conditions: at 100 μM test compound
T2 construct: endogenous in cells; host or cells: THP-1 (human monocytic leukemia cell line), whole cells
T2 sequence (P32246 1-355): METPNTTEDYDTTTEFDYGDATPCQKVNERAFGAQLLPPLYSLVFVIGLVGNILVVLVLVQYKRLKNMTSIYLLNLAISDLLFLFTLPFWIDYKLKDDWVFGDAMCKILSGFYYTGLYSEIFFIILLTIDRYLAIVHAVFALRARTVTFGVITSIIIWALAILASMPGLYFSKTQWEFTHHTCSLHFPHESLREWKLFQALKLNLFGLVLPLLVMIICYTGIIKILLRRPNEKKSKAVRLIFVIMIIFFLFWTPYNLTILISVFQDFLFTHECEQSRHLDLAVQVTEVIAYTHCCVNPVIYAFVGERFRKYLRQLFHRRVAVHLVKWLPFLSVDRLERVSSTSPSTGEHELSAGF
Procedure: Measurement of Inhibition of MIP-1α Binding to THP-1 Cells by Test Compounds
as §1, with “Iodinated” for “[^125I]-labeled”, “MIP-1α (DuPont NEN Co.)” for “MCP-1 described above”, “250 nCi/mL” for “1 mCi/mL”, “the” for “the labeled”, “solution.” for “solution,”
as §2, with “Co.)” for “Co.,),”
To calculate the ability of test compounds to inhibit binding of human MIP-1α to THP-1 cells, non-specific binding determined by adding 100 ng of unlabeled human MIP-1α (Peprotech Co.) in place of the test compound was subtracted, while the counts with no test compound added was taken as 100%.
as §3
(A, counts with test compound added: B, counts with 100 ng of unlabeled human MIP-1α added: C, counts with [^125I]-labeled human MIP-1α added).

`Cc1ccc(C(=O)NNC(=O)CN2CCCN(CCC(c3ccccc3)c3ccccc3)CC2)cc1` [Compound No. 87] was tested, and the “inhibitory activity (inhibition of human MCP-1 binding to THP-1 cells)” value [1] was > 20%.
For `O=C(CN1CCCN(CCC(c2ccccc2)c2ccccc2)CC1)NNC(=O)c1cc2ccccc2s1` [Compound No. 255], the “inhibitory activity (inhibition of human MCP-1 binding to THP-1 cells)” value [1] was > 20%.
With `O=C(CN1CCCN(CCC(c2ccccc2)c2ccccc2)CC1)NNC(=O)c1ccc(O)cc1` [Compound No. 89] the “inhibitory activity (inhibition of human MCP-1 binding to THP-1 cells)” value [1] was > 20%.
`C=C(C)C(=O)OCC(O)CN1CCCN(CCC(O)(c2ccccc2)c2cccc(O)c2)CC1.O=C(O)C(F)(F)F` (stereo not drawn) [Compound No. 230] was tested, and the “inhibitory activity (inhibition of human MCP-1 binding to THP-1 cells)” value [1] was > 20%.
`O=C(CN1CCCN(CCC(O)(c2ccccc2)c2cccc(O)c2)CC1)NNC(=O)c1cccs1` (stereo not drawn) [compound 260] was tested, and the “inhibitory activity (inhibition of human MCP-1 binding to THP-1 cells)” value [1] was > 20%.
With `O=C(CN1CCCN(CCC(O)(c2ccccc2)c2cccc(O)c2)CC1)NNC(=O)c1ccc(O)cc1` (stereo not drawn) [Compound No. 191] the “inhibitory activity (inhibition of human MCP-1 binding to THP-1 cells)” value [1] was > 20%.
In the case of `O=C(Cc1ccccc1)NNC(=O)CN1CCCN(CCC(c2ccccc2)c2ccccc2)CC1` [Compound No. 79], the “inhibitory activity (inhibition of human MIP-1α binding to THP-1 cells)” value [2] is reported as > 20%.
For `CS(=O)(=O)c1ccc(C(=O)NNC(=O)CN2CCCN(CCC(c3ccccc3)c3ccccc3)CC2)cc1` [Compound No. 99], the “inhibitory activity (inhibition of human MCP-1 binding to THP-1 cells)” value [1] was > 20%.
For `O=C(CN1CCN(CCC(c2ccccc2)c2ccccc2)CC1)NNC(=O)c1ccccc1` [Compound No. 11], the “inhibitory activity (inhibition of human MCP-1 binding to THP-1 cells)” value [1] was > 20%.
`COc1ccc(C(=O)NNC(=O)CN2CCCN(CCC(c3ccccc3)c3ccccc3)CC2)cc1` [Compound No. 92] was tested, and the “inhibitory activity (inhibition of human MCP-1 binding to THP-1 cells)” value [1] was > 20%.
For `N#CC(CCN1CCCN(Cc2ccc(Cl)cc2)CC1)(c1ccccc1)c1ccccc1` [Compound No. 3], the “inhibitory activity (inhibition of human MCP-1 binding to THP-1 cells)” value [1] was > 20% and the “inhibitory activity (inhibition of human MIP-1α binding to THP-1 cells)” value [2] was > 20%.
With `O=C(CN1CCCN(CCC(c2ccccc2)c2ccccc2)CC1)NNCc1ccccc1` [Compound No. 83] the “inhibitory activity (inhibition of human MCP-1 binding to THP-1 cells)” value [1] was > 20%.
In the case of `O=C(CN1CCCN(CCC(c2ccccc2)c2ccccc2)CC1)NNC(=O)c1ccco1` [Compound No. 251], the “inhibitory activity (inhibition of human MCP-1 binding to THP-1 cells)” value [1] is reported as > 20%.
With `O=C(CN1CCCN(CCC(c2ccccc2)c2ccccc2)CC1)NNC(=O)c1ccccc1[N+](=O)[O-]` [Compound No. 90] the “inhibitory activity (inhibition of human MCP-1 binding to THP-1 cells)” value [1] was > 20%.
For `O=C(CN1CCCN(CCC(c2ccccc2)c2ccccc2)CC1)NNC(=O)c1cccnc1` [Compound No. 254], the “inhibitory activity (inhibition of human MCP-1 binding to THP-1 cells)” value [1] was > 20%.
With `CCOC(=O)NNC(=O)CN1CCCN(CCC(c2ccccc2)c2ccccc2)CC1` [Compound No. 224] the “inhibitory activity (inhibition of human MCP-1 binding to THP-1 cells)” value [1] was > 20%.
For `Cc1csc(C(=O)NNC(=O)CN2CCCN(CCC(C#N)(c3ccccc3)c3ccccc3)CC2)c1` [Compound No. 234], the “inhibitory activity (inhibition of human MCP-1 binding to THP-1 cells)” value [1] was > 20%.
For `Cc1ccc(C(=O)NNC(=O)CN2CCCN(CCC(O)(c3ccccc3)c3cccc(O)c3)CC2)s1` (stereo not drawn) [Compound No. 262], the “inhibitory activity (inhibition of human MCP-1 binding to THP-1 cells)” value [1] was > 20%.
In the case of `CCN(CC)C(=O)CN1CCCN(CCC(C#N)(c2ccccc2)c2ccccc2)CC1` [Compound No. 264], the “inhibitory activity (inhibition of human MCP-1 binding to THP-1 cells)” value [1] is reported as > 20% and the “inhibitory activity (inhibition of human MIP-1α binding to THP-1 cells)” value [2] is reported as > 20%.
In the case of `O=C(CN1CCCN(CCC(c2ccccc2)c2ccccc2)CC1)NNC(=O)c1ccc(Br)cc1` [compound 98], the “inhibitory activity (inhibition of human MCP-1 binding to THP-1 cells)” value [1] is reported as > 20%.
`COC(=O)C(CCSC)NC(=O)CN1CCCN(CCC(c2ccccc2)c2ccccc2)CC1` (stereo not drawn) [Compound No. 288] was tested, and the “inhibitory activity (inhibition of human MCP-1 binding to THP-1 cells)” value [1] was > 20%.
`N#CC(CCN1CCCN(Cc2ccncc2)CC1)(c1ccccc1)c1ccccc1` [Compound No. 233] was tested, and the “inhibitory activity (inhibition of human MCP-1 binding to THP-1 cells)” value [1] was > 20% and the “inhibitory activity (inhibition of human MIP-1α binding to THP-1 cells)” value [2] was > 20%.
`N#Cc1ccc(CN2CCCN(CCC(C#N)(c3ccccc3)c3ccccc3)CC2)cc1` [Compound No. 2] was tested, and the “inhibitory activity (inhibition of human MCP-1 binding to THP-1 cells)” value [1] was > 20% and the “inhibitory activity (inhibition of human MIP-1α binding to THP-1 cells)” value [2] was > 20%.
For `CC(NC(=O)CN1CCCN(CCC(c2ccccc2)c2ccccc2)CC1)C(O)c1ccccc1` (stereo not drawn) [Compound No. 280], the “inhibitory activity (inhibition of human MCP-1 binding to THP-1 cells)” value [1] was > 20%.
With `CS(=O)(=O)c1ccc(CN2CCCN(CCC(C#N)(c3ccccc3)c3ccccc3)CC2)cc1` [Compound No. 4] the “inhibitory activity (inhibition of human MCP-1 binding to THP-1 cells)” value [1] was > 20%.
With `O=C(CN1CCCN(CCC(c2ccccc2)c2ccccc2)CC1)NNC(=O)c1cccs1` [Compound No. 252] the “inhibitory activity (inhibition of human MCP-1 binding to THP-1 cells)” value [1] was > 20% and the “inhibitory activity (inhibition of human MIP-1α binding to THP-1 cells)” value [2] was > 20%.
With `O=C(CN1CCCN(CCC(O)(c2ccccc2)c2cccc(O)c2)CC1)NNC(=O)c1ccccc1` (stereo not drawn) [Compound No. 185] the “inhibitory activity (inhibition of human MCP-1 binding to THP-1 cells)” value [1] was > 20%.
For `O=C(CN1CCCN(CCC(O)(c2ccccc2)c2cccc(O)c2)CC1)NNC(=O)c1ccc(Cl)cc1` (stereo not drawn) [Compound No. 194], the “inhibitory activity (inhibition of human MCP-1 binding to THP-1 cells)” value [1] was > 20%.
